# Experimental data as given in publication PMC10536063 (ACS Omega, 2023).
# Legend:
# [1] = system: MCF-10A (normal breast) cells; experiment: MTT cytotoxicity bioassay against normal MCF-10A cells; format: cell-based; settings: Homo sapiens, 48 h, read-out: IC50 ± SD, MCF-10A
# [2] = system: MCF-7 (breast cancer cells); experiment: MTT cytotoxicity bioassay against MCF-7; format: cell-based, human; settings: read-out: IC50 ± SD, MCF-7, 48 h, mean ± SD, n = 3
smiles,measurement,setting,value
"CC[C@H](CO)Nc1nc(NCc2ccccc2)c2ncn(C(C)C)c2n1 [Roscovitine, reference compound]",IC50,[1],≥ 50000 nM
same,IC50,[2],1910 ± 170 nM
